Source: PubChem BioAssay AID588590 (National Center for Advancing Translational Sciences (NCATS), 2011)
The whole screen tested about 390,000 compounds, of which about 4,000 (1%) were called active. The inconclusive results got no clear call from the source; some entries with a clear call stand among them for comparison. Calls come from the whole dose curve; as a rule, active = well fitted inhibition curve with a large enough effect; inconclusive = small, poorly fitted or top-dose-only effect, or another doubt; inactive = no such curve, though single readings can be large or run the other way. Potencies beside an inconclusive call are fits to weak or partial responses and may not hold up.

Protein sequences, listed by entry. Tags and fused reporters are not part of them. Lines headed by an entry give the natural chain unless they say otherwise; changes in a name come on top.
UniProt Q9UNA4: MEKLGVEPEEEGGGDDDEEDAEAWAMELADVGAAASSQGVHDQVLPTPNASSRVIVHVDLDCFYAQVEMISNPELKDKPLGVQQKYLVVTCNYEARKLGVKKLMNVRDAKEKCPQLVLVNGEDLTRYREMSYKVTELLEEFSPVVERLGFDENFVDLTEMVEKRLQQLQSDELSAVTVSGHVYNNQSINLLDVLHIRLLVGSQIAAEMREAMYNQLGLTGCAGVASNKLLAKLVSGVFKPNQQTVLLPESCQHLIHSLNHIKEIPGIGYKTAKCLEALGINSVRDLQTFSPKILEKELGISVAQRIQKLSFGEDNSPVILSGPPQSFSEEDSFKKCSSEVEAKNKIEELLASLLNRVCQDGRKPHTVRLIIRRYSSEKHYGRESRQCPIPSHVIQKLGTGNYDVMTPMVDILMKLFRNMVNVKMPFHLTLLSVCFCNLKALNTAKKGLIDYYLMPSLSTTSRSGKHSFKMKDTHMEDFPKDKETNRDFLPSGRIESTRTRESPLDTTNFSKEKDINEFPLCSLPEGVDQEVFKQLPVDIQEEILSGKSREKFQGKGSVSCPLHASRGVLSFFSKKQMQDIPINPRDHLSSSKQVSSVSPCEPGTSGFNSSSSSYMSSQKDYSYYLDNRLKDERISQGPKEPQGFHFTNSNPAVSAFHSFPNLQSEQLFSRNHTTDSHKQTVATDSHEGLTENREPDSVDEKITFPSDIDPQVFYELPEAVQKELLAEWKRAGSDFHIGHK

target: DNA polymerase iota (Homo sapiens) (UniProt Q9UNA4); assay: qHTS for Inhibitors of Polymerase Iota; details: Pol iota fluorescent replication assay, 10 min; series mostly up to 115 µM
In short: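 Fluorescent replication assay read twice, at 0 min and 10 min after adding 50 nM (final) substrate. Enzyme (10 nM) and compounds were first incubated 15 min at room temperature; enzyme-free buffer wells were negative controls.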
Potency is the fitted concentration of half-maximal effect.

Potency, inactive:
COc1ccc(C2=C(C)C(=O)N(Cc3ccc(C(=O)Nc4ccc(F)cc4C)cc3)S2(=O)=O)cc1
COc1ccc(C(=O)N(CCCO)Cc2cc3c(C)ccc(C)c3[nH]c2=O)cc1OC
Cc1ccc(S(=O)(=O)N2CCN(C(=O)CN3CCCSc4ccccc43)CC2)cc1
COc1cc(C2Nc3cccc4cccc(c34)N2)ccc1O
CC(C)(C)NC(=O)C(c1ccc(F)cc1)N(Cc1ccco1)C(=O)Cn1nnc(-c2cccs2)n1 (stereo unspecified)
Nc1ccc(/C=C/c2nc3ccccc3s2)cc1
CS(=O)(=O)N(CC(=O)NCCSCc1ccccc1)c1ccccc1Cl
CCOCCc1nnc(NC(=O)CCc2ccccc2)s1
COc1ccc(C2(CNS(=O)(=O)c3ccccc3)CCOCC2)cc1
O=C1Nc2ccccc2C1=O
COc1cccc(-c2nn(C)c3sc(C(=O)NCc4ccc(C)o4)cc23)c1
COc1ccc2c(c1OC)C(=O)OC2c1ccc(O)cc1 (stereo unspecified)
CCC(Cn1nnc2ccccc2c1=O)NC(=O)Nc1ccc(C)cc1C (stereo unspecified)
CC1CCC(NC(=O)C2(C)Cc3ccccc3C(=O)N2Cc2ccc(F)cc2)CC1 (stereo unspecified)
CC(C)c1ccc(-c2nnc3n(CCc4ccccc4)c(=O)c4ccccc4n23)cc1
CCCC(=O)NC(=S)Nc1sc2c(c1C(N)=O)CCC2
Cc1ccc(-n2c3nc(=O)n(C)c(=O)c-3cc3ccccc32)cc1

Potency, active:
N#Cc1c(SCC(=O)Nc2nc3ccc(Br)cc3s2)sc2c(O)cc(=O)[nH]c12 6.31 µM
CCCN1CCN(CCCNC(=O)c2ccc3c(c2)sc2nc(-c4ccc(OCC)cc4)cn23)CC1 79.4 µM
Nc1c(/C=C2/C=CC(=O)C(O)=C2)c(=O)nc2sc(CC(=O)N3CCOCC3)nn12 8.91 µM

Potency, inconclusive:
CCOC(=O)Nc1nnc(Cc2ccc(Cl)c(Cl)c2)s1 89.1 µM [inhibitor, single point]
CCOC(=O)c1cn(CC)c2cc(N3CCN(C)CC3)c(F)cc2c1=O 89.1 µM [inhibitor, single point]
CC1=NN(c2nc(-c3ccc(F)cc3)cs2)C(=O)C1 10 µM [inhibitor, full curve, poor fit]
O=C(O)c1cc(N/N=C/c2ccc3c(c2)OCCO3)ccc1Cl 15.8 µM [inhibitor, partial curve, poor fit]
COc1cccc(-c2cn3c(n2)sc2cc(C(=O)NCc4ccccc4F)ccc23)c1 89.1 µM [inhibitor, single point]
COc1cc2nc(N3CCN(c4cc(C)ccc4C)CC3)nc(N)c2cc1OC 8.91 µM [inhibitor, full curve, poor fit]
N#C/C(=C\c1ccc(OCc2ccc(F)cc2)cc1)C(=O)Nc1cccc(C(=O)O)c1 15.8 µM [inhibitor, partial curve, poor fit]
COc1ccc(N2C(=O)CSC23C(=O)Nc2ccccc23)cc1 (stereo unspecified) 39.8 µM [inhibitor, single point]
COc1ccc(/C=N/Nc2ncnc3c2[nH]c2ccccc23)c(OC)c1OC 79.4 µM [inhibitor, partial curve, poor fit]
Cc1ccccc1NC(=O)NNC(=O)c1ccc2ccccc2c1O 89.1 µM [inhibitor, partial curve, poor fit]
CC(C)c1ccc(CN(C(=O)/C=C/c2ccco2)C2CCS(=O)(=O)C2)cc1 (stereo unspecified) 15.8 µM [inhibitor, partial curve, poor fit]
Cc1ccc(-n2c(=O)c3cccnc3n2CC(=O)Nc2ccc(C)cc2Cl)cc1 89.1 µM [inhibitor, partial curve, poor fit]
COc1ccc(-c2c[n+]3c4n2CCCCC4=C(c2ccc(Br)cc2)C3)cc1 35.5 µM [inhibitor, partial curve, poor fit]
CCC(=O)N1c2ccccc2NC2=C(C(=O)CC(C)(C)C2)C1c1ccc(O)c(OC)c1 (stereo unspecified) 89.1 µM [inhibitor, single point]
CCn1nc(NC(=O)c2cccnc2)c2cc3cccc(C)c3nc21 1.12 µM [inhibitor, partial curve, poor fit]
Cc1cc([N+](=O)[O-])nn1CC(=O)Nc1sc2c(c1C(N)=O)CCCC2 28.2 µM [inhibitor, single point]
C[C@H]1CN=C(N(C)C)N1CC1CCC(C(C)(C)C)CC1 (stereo partly specified) 14.1 µM [inhibitor, full curve, poor fit]
C=CC(=O)N1C/C(=C/c2ccc(Cl)cc2)C(=O)/C(=C\c2ccc(Cl)cc2)C1 3.55 µM [inhibitor, full curve, poor fit]
CC(C)Nc1ccc(Nc2ccnc3cc4ccccc4cc23)cc1 28.2 µM [inhibitor, partial curve, poor fit]
Oc1ccc2ccccc2c1CNc1ccc(Br)cc1 56.2 µM [inhibitor, partial curve, poor fit]
Brc1cccc(OCCCN2CCCCCC2)c1 5.62 µM [inhibitor, partial curve]
O=C(CSc1nnc(CNC(=O)c2ccco2)o1)c1ccc(Cl)cc1 6.31 µM [inhibitor, single point]
Cc1ccc(OCC(=O)Nc2ccc(-c3nnc(-c4ccco4)o3)cc2)cc1 3.55 µM [inhibitor, partial curve, poor fit]
O=C1CCCC(O)=C1N=Nc1cccc(S(=O)(=O)N2CCOCC2)c1 22.4 µM [inhibitor, partial curve, poor fit]
CCN(CC)c1ccc(-c2nnc(SCC(=O)Nc3ccccc3C#N)n2-c2ccccc2)cc1 89.1 µM [inhibitor, partial curve, poor fit]
Cc1ccc(NS(=O)(=O)c2cccc(C(=O)NCC(c3ccco3)N3CCCCC3)c2)cc1 (stereo unspecified) 89.1 µM [inhibitor, single point]
CCOc1ccccc1Nc1nc(-c2sc(NC(=O)c3ccco3)nc2C)cs1 39.8 µM [inhibitor, single point]
CCc1sc(C(=O)NCCc2ccc(S(N)(=O)=O)cc2)cc1C 89.1 µM [inhibitor, single point]
COc1ccc(/C=C/c2cc(=O)c3cc(Cl)ccc3o2)cc1 22.4 µM [inhibitor, partial curve, poor fit]
CSCCC(NC(=O)c1ccco1)C(=O)NCC1CCCO1 (stereo unspecified) 5.01 µM [inhibitor, single point]
CN1CCN(Cc2ccc(OCc3ccccc3)cc2)CC1 15.8 µM [inhibitor, partial curve, poor fit]
O=C(O)/C(=C\c1cccc(O)c1)c1ccc(S(=O)(=O)N2CCCC2)s1 15.8 µM [inhibitor, partial curve, poor fit]
COc1ccc2nc(SCC(=O)Nc3ccc4[nH]c(=O)[nH]c4c3)[nH]c2c1 28.2 µM [inhibitor, partial curve]
CCCOc1ccc(C(=O)CCNc2ccc(C)c(Cl)c2)cc1 28.2 µM [inhibitor, full curve]
O=C1NC(=S)S/C1=C\c1cc(Cl)ccc1Cl 50.1 µM [inhibitor, partial curve]
COc1cccc(NC2=C(NCCO)C(=O)c3ccccc3C2=O)c1 25.1 µM [inhibitor, single point]
COc1ccc(C(=O)NCCc2sc(-c3ccc(F)cc3)nc2C)cc1OC 89.1 µM [inhibitor, single point]
CCOc1[nH]c(/N=C/c2ccccc2)c(C#N)c1C#N 79.4 µM [inhibitor, partial curve]
Cc1cc(C)c(S(=O)(=O)N2CCN(C(=O)C3CCCO3)CC2)c(C)c1 (stereo unspecified) 1.26 µM [inhibitor, full curve, poor fit]
CC(C)(C)OC(=O)[C@H](Cc1ccccc1)NC(=O)c1nc[nH]c1C(=O)NC1CCNCC1 28.2 µM [inhibitor, partial curve, poor fit]
CC(C)OC(=O)CSc1nc(Cc2cccs2)nc2ccccc12 56.2 µM [inhibitor, single point]
CCC1c2ccc(C)n2CCN1C(=O)Nc1ccccc1OC (stereo unspecified) 15.8 µM [inhibitor, partial curve, poor fit]
CCN(CC)c1ccc(NC(=O)CSc2nc3ccccc3c(=O)[nH]2)cc1 39.8 µM [inhibitor, partial curve, poor fit]
Cc1c(C)n2c(SCC(=O)N3CCCC3)nnc2[nH]c1=O 2.82 µM [inhibitor, full curve, poor fit]
CC(=O)c1ccc(NS(=O)(=O)c2cc(-c3cc(C)no3)ccc2C)cc1 100 µM [inhibitor, single point]
CCCn1c(=O)c(C(=O)NCc2ccc3c(c2)OCO3)c(O)c2ccccc21 70.8 µM [inhibitor, single point]

Reprinted at random: three records from the list.
Potency, inconclusive:
CN1CCN(Cc2ccc(OCc3ccccc3)cc2)CC1 15.8 µM [inhibitor, partial curve, poor fit]
CCC1c2ccc(C)n2CCN1C(=O)Nc1ccccc1OC (stereo unspecified) 15.8 µM [inhibitor, partial curve, poor fit]
CC(C)Nc1ccc(Nc2ccnc3cc4ccccc4cc23)cc1 28.2 µM [inhibitor, partial curve, poor fit]

Three structures already listed, sorted by molecular weight, high to low:
Potency, inconclusive:
CCCn1c(=O)c(C(=O)NCc2ccc3c(c2)OCO3)c(O)c2ccccc21 70.8 µM [inhibitor, single point]
Cc1ccc(OCC(=O)Nc2ccc(-c3nnc(-c4ccco4)o3)cc2)cc1 3.55 µM [inhibitor, partial curve, poor fit]
CC(=O)c1ccc(NS(=O)(=O)c2cc(-c3cc(C)no3)ccc2C)cc1 100 µM [inhibitor, single point]
